To fix the notation:
T1: ORC2-GFP (Drosophila (endogenous in embryos)) (UniProt Q24168)
T1 sequence: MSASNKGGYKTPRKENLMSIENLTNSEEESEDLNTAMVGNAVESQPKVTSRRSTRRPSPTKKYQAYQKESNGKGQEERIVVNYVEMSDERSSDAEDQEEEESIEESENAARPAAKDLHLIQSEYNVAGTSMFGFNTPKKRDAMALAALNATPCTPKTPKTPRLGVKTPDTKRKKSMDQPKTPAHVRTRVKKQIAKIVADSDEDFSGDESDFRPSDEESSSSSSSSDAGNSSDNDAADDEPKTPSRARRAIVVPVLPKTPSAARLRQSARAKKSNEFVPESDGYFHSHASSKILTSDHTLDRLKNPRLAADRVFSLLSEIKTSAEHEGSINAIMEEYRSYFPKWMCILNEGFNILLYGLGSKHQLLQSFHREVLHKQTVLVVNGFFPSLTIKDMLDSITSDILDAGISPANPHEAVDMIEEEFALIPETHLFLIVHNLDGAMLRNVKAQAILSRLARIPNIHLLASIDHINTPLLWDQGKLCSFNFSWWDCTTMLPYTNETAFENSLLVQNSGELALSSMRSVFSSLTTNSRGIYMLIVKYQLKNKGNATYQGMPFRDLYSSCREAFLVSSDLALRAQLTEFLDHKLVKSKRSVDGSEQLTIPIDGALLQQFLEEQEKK

Sequences of proteins named here, by UniProt entry; tags and fusion partners are left off.
UniProt Q9VWE6: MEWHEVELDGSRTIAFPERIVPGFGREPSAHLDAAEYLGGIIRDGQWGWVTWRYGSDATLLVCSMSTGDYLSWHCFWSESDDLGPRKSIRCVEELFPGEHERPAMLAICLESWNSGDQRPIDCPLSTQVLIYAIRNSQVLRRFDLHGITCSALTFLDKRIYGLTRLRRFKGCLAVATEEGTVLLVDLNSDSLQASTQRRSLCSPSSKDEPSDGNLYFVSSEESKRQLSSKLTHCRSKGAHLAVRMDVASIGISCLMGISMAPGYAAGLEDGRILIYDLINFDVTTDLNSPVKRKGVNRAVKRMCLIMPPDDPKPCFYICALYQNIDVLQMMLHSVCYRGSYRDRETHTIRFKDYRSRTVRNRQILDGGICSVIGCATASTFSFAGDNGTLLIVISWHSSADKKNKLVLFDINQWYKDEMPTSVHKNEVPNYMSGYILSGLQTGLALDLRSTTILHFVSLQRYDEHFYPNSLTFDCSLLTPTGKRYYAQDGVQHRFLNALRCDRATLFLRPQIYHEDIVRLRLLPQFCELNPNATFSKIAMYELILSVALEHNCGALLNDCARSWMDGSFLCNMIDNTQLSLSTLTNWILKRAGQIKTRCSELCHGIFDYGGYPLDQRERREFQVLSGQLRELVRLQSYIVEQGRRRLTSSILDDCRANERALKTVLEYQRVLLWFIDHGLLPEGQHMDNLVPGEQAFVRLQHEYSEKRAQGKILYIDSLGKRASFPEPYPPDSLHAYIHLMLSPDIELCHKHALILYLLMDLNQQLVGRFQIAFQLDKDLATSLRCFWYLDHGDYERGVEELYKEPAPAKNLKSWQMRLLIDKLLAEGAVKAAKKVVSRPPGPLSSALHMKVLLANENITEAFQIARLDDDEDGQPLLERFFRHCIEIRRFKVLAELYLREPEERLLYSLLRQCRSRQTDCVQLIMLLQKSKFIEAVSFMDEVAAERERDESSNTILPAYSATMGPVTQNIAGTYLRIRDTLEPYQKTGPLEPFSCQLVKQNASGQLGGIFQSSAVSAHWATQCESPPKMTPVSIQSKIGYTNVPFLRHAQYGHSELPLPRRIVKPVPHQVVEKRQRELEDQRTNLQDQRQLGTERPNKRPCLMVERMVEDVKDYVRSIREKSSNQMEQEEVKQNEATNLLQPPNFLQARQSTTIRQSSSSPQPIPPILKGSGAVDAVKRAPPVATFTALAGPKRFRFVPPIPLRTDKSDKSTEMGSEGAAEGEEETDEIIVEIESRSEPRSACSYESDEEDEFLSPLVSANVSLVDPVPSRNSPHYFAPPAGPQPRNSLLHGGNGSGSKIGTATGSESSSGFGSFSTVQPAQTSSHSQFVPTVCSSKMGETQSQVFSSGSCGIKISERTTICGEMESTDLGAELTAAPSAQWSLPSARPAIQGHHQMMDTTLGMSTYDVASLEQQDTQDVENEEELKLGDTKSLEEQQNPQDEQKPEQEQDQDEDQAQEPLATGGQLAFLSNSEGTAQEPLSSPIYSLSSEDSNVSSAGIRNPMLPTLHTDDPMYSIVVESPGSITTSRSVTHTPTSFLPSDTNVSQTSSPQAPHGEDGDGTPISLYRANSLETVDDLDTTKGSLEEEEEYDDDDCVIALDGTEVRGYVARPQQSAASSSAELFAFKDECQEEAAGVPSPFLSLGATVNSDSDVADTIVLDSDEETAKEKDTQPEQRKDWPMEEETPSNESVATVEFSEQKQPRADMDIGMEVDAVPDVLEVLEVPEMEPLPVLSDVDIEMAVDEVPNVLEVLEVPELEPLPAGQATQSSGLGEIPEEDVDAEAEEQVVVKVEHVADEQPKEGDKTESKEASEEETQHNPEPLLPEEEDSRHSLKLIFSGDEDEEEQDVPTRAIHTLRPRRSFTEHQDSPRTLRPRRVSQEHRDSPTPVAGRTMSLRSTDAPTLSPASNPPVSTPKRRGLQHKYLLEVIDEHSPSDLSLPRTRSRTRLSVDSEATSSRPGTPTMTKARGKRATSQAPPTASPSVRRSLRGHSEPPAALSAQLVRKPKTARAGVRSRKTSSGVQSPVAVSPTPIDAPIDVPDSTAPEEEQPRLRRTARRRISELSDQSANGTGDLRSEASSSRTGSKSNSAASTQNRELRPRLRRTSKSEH

B1: Nup160 (protein, UniProt Q9VKJ3 1-1411)
chain: MPTSKLQANMSYREVIPRNLSPAEWIEVKINTGTQSTLQDLKTFETSGGYCYKNTKNVQTRNRFIYWRTYQDVLELSEVSLDISLQRNHLRLRFTDSAVLNVSLTEQGTSVTLLVVTVSSVHRYVFPLKVAGQEGGAASPEDLLSQSIFYDVNDKINDPSTYYVTDGFGTMPNAAVSYLTQDSQSAYFAVAYQSKLLLHVMKCSTGHTITHEIKEPKLMPWFLSNLKGALTGRSETLEAATSMAFSEIGGEIFILVLYRNNELRLWSVDNLQTVASINCSTELGQDSAAQGPQNSQLRKISDQNFCLFLSHNSRAEFICVSIMPDADDASVINLVQNMVPAPQTDLVDFDATSSHIWALWSNAEGDFHVSAAYFASNNAIKWVSAALEPPPDRYCLTMEQGVDPRETYCSYIFHPGRFDRNVIAKALYMFRRVNLQFDVKQLSMSVLKEQVCQAVEDEIQNELKDFVVTDEEYLEISTRLWDRFYSCCEQYHIKLSEPTGLAVLGGMDAVCLVRRQSFALLRPCEVLEHLLLIGEHNDEVATYVAPLFRNDPEMAKGFVELMNVVTLLDKLISEDIKIELDKQLYQRESPVEVISKLVARISMIDDNGPILPSNCVRQIQQKLQNIPNLEPALEMLLDVLCMIDPDEPPHDYSLSTRFLQSSGALMGSEYGLSILSETVKQMAMIRFSVCRNLLVLQYMAYGQNEMESENVLTNLNYLNSYYTLVWIAETPISSSTPAGFEASIQRLSRAQLFSGYNRPYSSHLKHNGNDQTTLLRLFLESKGLFSALTMLLKHDSLSLDSEQLNLRQSLLQLVGYINKMLWPGSPIYVFPEWLFGTCHHIIVQDYVRILSNWCSVQKHARRFMLAVSLLDCGEAHKAVHLFHEAESGIVEDDFLFEHVLKNTPLYGKLQNSVSRGDTISPEDTKLAIVHYYLKVIQLFEQHSALDYIIQLADMAIRVLQPDDPQLPMFQSIVFNNHLQLGHYVEAYTALVNNADISRRKDCLRQLVITLFQNKCLPLLMQFSYIGLQDEFESIVESRARSMSIDQNEVYNFLYAFHTNKGNMRKASTVMYEQAMRFQVDSDAPNALEKRCSSLLICLNCLHLVDSRYRWIAKPVLGDEQVITIDQDNDDGEPKCDEDKRGQEVVVLELADIRRELVHAEALRELSFYRKDTAAYERATPEELSYLLASSGLYTAALKLSRGHSFSVLPIFESLTSACVAATEDKSSDAWNWLQNNDMADLPHRSNAADMAWTLLQKLVVDNEAKDSTLIRKSVVQRLLGLNAFLPQWLINSYKLSHSRELLHLLVKHNRLLEAADLGCEIIAGMLGAGSEYFEFKHAVNIANPQLCFPISTIDLLLHGLKINGKDDLDYEMAYFKLEEEVQRYIETIKRTTDDKMSMAVLQMRTDLQEER

These are yes or no findings as the source states them, for the method shown. Binding seen in cells or lysates may run through a third protein. A yes stands for co-enrichment or nearness to the bait. Other partners may have been found. Tags and fused reporters may be left off the sequences shown.

The assay has as its target T1, ORC2-GFP (Drosophila (endogenous in embryos)). Put plainly: affinity purification with mass spectrometry; GFP-Trap magnetic agarose IP of ORC2-GFP from extracts of Drosophila embryos aged 18-24 h (Oregon R embryos as negative control); NP40 lysis buffer (50 mM Tris HCl pH 8.0, 150 mM NaCl, 1% NP40, 1 mM EDTA, 1 mM EGTA); extract treated with benzonase; 2 h at 4°C; three biological replicates.
Regarding Elys (from UniProt Q9VWE6 1-2111), the binding result is “binds”.

As for “Nup98-96 (Drosophila (endogenous in embryos))”, the binding result is “binds”.

As for B1, the binding result is recorded as “binds”.

Values taken from PMC10040217.
